Source: PubChem BioAssay AID493014 (National Center for Advancing Translational Sciences (NCATS), 2011)
Some of the results follow. The main result of the screen is listed elsewhere. These columns were measured beside it and carry no call. Most of these compounds were active or inconclusive in the main read-out, so they are no random draw. Potencies come from curve fits of mixed quality, noted in brackets.

Assay: qHTS Assay to Find Inhibitors of Chronic Active B-Cell Receptor Signaling
Conditions: ABC-DLBCL IkBa-CBG/CBR reporter, luminescence ratio (green luciferase fused to IkBa over red control in TMD8 lymphoma cells), 4 h; measured here: CBR red luminescence, cell number
How it was run: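 Compounds up to 46 uM were incubated four hours with TMD8 cells whose green CBG68 luciferase is fused to IkappaBalpha; red CBR luminescence normalised the signal, and concentration-effect curves were fitted to fusion, red and ratio data.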

SMILES	AC50
CCOc1ccc(NC(=O)c2ccc(NC(=S)NC3CCCCC3)cc2)cc1	7.08 µM [falling, partial curve]
Cc1cc(=O)oc2c(C)c(OCC(=O)N3CCN(C(=O)C4COc5ccccc5O4)CC3)ccc12 (centres undefined)	31.6 µM [falling, single point]
O=c1oc2ccc(Cl)cc2nc1/C=C(\O)c1cccs1	6.31 µM [rising, single point]
CCOC(=O)C1(Cc2cccc(OC)c2)CCN(Cc2cccc(OC)c2O)CC1	1.58 µM [falling, partial curve, poor fit]
COc1ccc(S(=O)(=O)N2CCC(N3CCCC3)CC2)cc1	3.55 µM [falling, partial curve, poor fit]
CC(C)OC(=O)c1ccc(NC(=O)c2cncc(Br)c2)cc1	1.58 µM [rising, full curve]
CCOC(=O)C1=C(CC)Nc2ccccc2N/C1=N\S(=O)(=O)c1cc(Br)ccc1Br	11.2 µM [falling, single point]
CCn1c(SCC(=O)Nc2nc3ccccc3s2)nnc1-c1ccc(OC)cc1	10.3 µM [falling, partial curve]
c1cc(-c2noc(CC3CCCCC3)n2)ccn1	31.6 µM [rising, single point]
O=C(N/N=C/c1ccc2nccnc2c1)c1ccccc1O	0.316 µM [falling, full curve]
N#Cc1cn(CCOc2ccc(F)cc2)c2ccccc12	32.6 µM [falling, single point]
Cc1cccc2nc(C(=O)Nc3cc(Cl)ccc3-n3cncn3)cn12	6.51 µM [rising, single point]
COC(=O)C1=C(C)NC(=S)N(C(C)=O)C1c1ccccc1 (centres undefined)	11.6 µM [falling, partial curve, poor fit]
O=C(/C=C/Nc1cccc(F)c1)c1ccco1	16.4 µM [falling, single point]
Cc1ccc(NC2=C(CC(=O)O)C(c3ccccc3)N(c3ccc(C)cc3)C2=O)cc1 (centres undefined)	10.3 µM [falling, partial curve, poor fit]
CCOC(=O)CC1C(=O)NCCN1S(=O)(=O)c1cc(Cl)c(Cl)cc1Cl (centres undefined)	8.91 µM [rising, partial curve]
O=C1CC(N2CCSCC2)C(=O)N1CCc1ccccc1 (centres undefined)	6.51 µM [rising, single point]
CCOC(=O)C1CCN(C(=O)/C=C/c2ccc3c(c2)OCO3)CC1	1.41 µM [falling, full curve]
CC1C(=O)N(Cc2ccccc2F)c2ccccc2N1C(=O)c1c(F)cccc1F (centres undefined)	35.5 µM [falling, single point]

Quoted from the listing:
For AC50, COc1ccc(S(=O)(=O)N2CCC(N3CCCC3)CC2)cc1 reads 3.55 µM [falling, partial curve, poor fit]
For AC50, CCOC(=O)C1CCN(C(=O)/C=C/c2ccc3c(c2)OCO3)CC1 reads 1.41 µM [falling, full curve]
